Assay results as given in PubChem BioAssay AID1347076 (National Center for Advancing Translational Sciences (NCATS), 2019).
In all, about 400,000 compounds went through this assay and about 13,000 (3.2%) were called active. Inconclusive means that the source gave no clear call. Such entries were picked first, then a sample of the others. The call rests on the fitted dose curve; in most records, active means well fitted cell-killing curve with a large enough effect; inconclusive means small, poorly fitted or top-dose-only effect, or effect the other way; inactive means flat fitted curve, though single readings scatter. Potencies beside an inconclusive call are fits to weak or partial responses and may not hold up.

Assay: qHTS assay for MDR1-selective chemotherapeutics: Primary screen using the drug-selected MDR subline cells KB-V1; further: nearly all actives have a fitted effect of over 60% in size
Details: KB-V1 MDR cells viability, CellTiter-Glo, 72 h; activity change, negative = cytotoxicity: at 46.1 µM (top of the series)
Procedure, shortened: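 Readout: CellTiter-Glo luminescence, 10 min after addition. Cells: KB-V1 MDR subline, 72 h at 37 degrees C with compound. Analysis: corrected, normalized data fitted to concentration-effect curves.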
On the % scale 0 is the no-effect control and ±100 the full control effect; potency means the concentration at half of the fitted maximal effect.

| SMILES | Potency | activity change, negative = cytotoxicity |
| --- | --- | --- |
| CC1CC(C)(C)n2c(O)c(N=NC(N)=S)c3cccc1c32 (stereo not given) | inconclusive: 18.4 µM [cytotoxic, single point] | – |
| CNC(=O)c1c(NC(=O)c2ccc(S(=O)(=O)N(C)c3ccccc3)cc2)sc2c1CCN(C(C)C)C2 | inconclusive: 23.1 µM [rising, single point] | – |
| N#Cc1c(NC(=S)NC(=O)Cc2cccs2)sc2c1CCCCC2 | inconclusive: 20.6 µM [cytotoxic, partial curve] | – |
| COCc1nnc(NC(=O)CCSc2ccccc2)s1 | inconclusive: 23.1 µM [cytotoxic, partial curve, poor fit] | – |
| O=S(=O)(NCc1cccnc1)c1ccc(Cl)c2ccccc12 | – | inactive: -0.189% |
| Cc1c(Cl)cccc1NC(=O)Nc1ccc2snnc2c1 | inconclusive: 29.1 µM [cytotoxic, single point] | – |
| CCN(CC)S(=O)(=O)c1ccc(OC)c(NC(=O)c2ccc(N3CCCC3=O)cc2)c1 | – | inactive: -19.6% |
| C/C(=N\NC(=S)NC(C)C)c1ccc(Cl)s1 | inconclusive: 29.1 µM [cytotoxic, single point] | – |
| COc1ccc(C(CNC(=O)c2ccc(-c3ccccc3Cl)o2)N2CCOCC2)cc1 (stereo not given) | inconclusive: 5.17 µM [cytotoxic, partial curve] | – |
| Cc1nn(Cc2ccc(Cl)c(Cl)c2)c(C)c1NC(=O)c1cn(-c2ccccc2)nc1-c1ccccc1 | inconclusive: 29.1 µM [cytotoxic, single point] | – |
| CCCCC(=O)Nc1ccccc1N1CCOCC1 | inconclusive: 0.0326 µM [cytotoxic, full curve] | – |
| CCc1cc2cc(C(=O)Nc3ccccc3F)sc2s1 | inconclusive: 7.31 µM [cytotoxic, partial curve] | – |
| CCN(CC)S(=O)(=O)c1cc(NC(=O)C(C)N2CCN(Cc3ccc4c(c3)OCO4)CC2)ccc1C (stereo not given) | active: 2.91 µM | – |
| O=C(NNC(=O)C1CC(=O)N(Cc2ccccc2)C1)c1ccc(F)cc1 (stereo not given) | inconclusive: 14.6 µM [rising, partial curve, poor fit] | – |
| CCCC(OC(=O)CN1C(=O)COc2ccccc21)C(=O)NC1CCCC1 (stereo not given) | inconclusive: 20.6 µM [cytotoxic, partial curve, poor fit] | – |
| CC(C)COCc1ccc(O)c2ncccc12 | inconclusive: 4.61 µM [cytotoxic, full curve] | – |
| O=c1c2sc3ccccc3c2n(Cc2ccc(F)cc2Cl)c(=O)n1Cc1ccccc1 | – | inactive: 0% |
| COc1cccc(NC(=O)CN(C)C(=O)c2ccc(-c3ccc(Cl)cc3)o2)c1 | inconclusive: 16.4 µM [cytotoxic, single point] | – |

| SMILES | Potency | activity change, negative = cytotoxicity |
| --- | --- | --- |
| CCCn1c(NC(=O)c2ccc(C)cc2)nc2ccccc21 | inconclusive: 16.4 µM [cytotoxic, partial curve, poor fit] | – |
| CC(C)(C)C(=O)Nc1cc(NC(=O)C(C)(C)C)cc(C(=O)Nc2cc(C(=O)O)cc(C(=O)O)c2)c1 | – | inconclusive: 30.3% |
| C=CCN=C(C)C1=C(O)CCC1=O | inconclusive: 25.9 µM [rising, single point] | – |
| Cn1c(SCc2ccccn2)nnc1-c1ccccc1 | inconclusive: 1.46 µM [rising, full curve] | – |
| COc1ccc(/C=C2\CC/C(=C\c3ccc(OC)cc3OC)C2=O)c(OC)c1 | inconclusive: 8.2 µM [cytotoxic, partial curve, poor fit] | – |
| COc1ccc(CCNC(=O)c2ccc(N(C)S(=O)(=O)c3ccc(C)cc3)cc2)cc1 | inconclusive: 10.3 µM [cytotoxic, partial curve] | – |
| O=S(=O)(N1CCCCC1)n1c(Cc2ccccc2)nc2ccccc21 | inconclusive: 29.1 µM [cytotoxic, single point] | – |
| Cc1ccc(C(=O)NCCNS(C)(=O)=O)cc1 | inconclusive: 29.1 µM [rising, single point] | – |
| Cc1ccc(CNC(=O)CN2C(=O)CCc3cc(S(=O)(=O)N4CCCCC4)ccc32)cc1 | – | inactive: -2.5% |
| CCN(CC)S(=O)(=O)c1ccc(N2CCCCS2(=O)=O)cc1 | – | inactive: 11.4% |
| Cc1ccc2onc(CNC(=O)N3CCN(c4cccc(C(F)(F)F)c4)CC3)c2c1 | – | inactive: 19.3% |
| Cc1cc(=O)oc2cc(OCC(=O)Nc3c(Cl)cccc3C(F)(F)F)ccc12 | inconclusive: 9.2 µM [cytotoxic, partial curve] | – |
| CSc1ccccc1-c1nc(-c2ccncc2)no1 | inconclusive: 32.6 µM [cytotoxic, single point] | – |
| COc1cc(OC)cc(C(=O)NNC(=S)NC(=O)c2cccnc2)c1 | – | inconclusive: 0.403% |
| Cc1ccc2oc(-c3ccc(C)c(NC(=O)c4ccc(-c5ccccc5[N+](=O)[O-])o4)c3)nc2c1 | – | inactive: -20.1% |
| O=C(CCc1nc2ccccc2c(=O)[nH]1)Nc1cccc(S(=O)(=O)N2CCCCC2)c1 | inconclusive: 2.91 µM [cytotoxic, partial curve, poor fit] | – |
| CCOc1ccc(OCC)c(NC(=O)C2CCN(S(=O)(=O)c3cccc4nonc34)CC2)c1 | inconclusive: 29.1 µM [cytotoxic, single point] | – |

Ordered by number of heavy atoms (falling): some entries from above.

| SMILES | Potency | activity change, negative = cytotoxicity |
| --- | --- | --- |
| Cc1ccc2oc(-c3ccc(C)c(NC(=O)c4ccc(-c5ccccc5[N+](=O)[O-])o4)c3)nc2c1 | – | inactive: -20.1% |
| O=C(CCc1nc2ccccc2c(=O)[nH]1)Nc1cccc(S(=O)(=O)N2CCCCC2)c1 | inconclusive: 2.91 µM [cytotoxic, partial curve, poor fit] | – |
| Cc1ccc2onc(CNC(=O)N3CCN(c4cccc(C(F)(F)F)c4)CC3)c2c1 | – | inactive: 19.3% |
| COc1cc(OC)cc(C(=O)NNC(=S)NC(=O)c2cccnc2)c1 | – | inconclusive: 0.403% |
| CCN(CC)S(=O)(=O)c1ccc(N2CCCCS2(=O)=O)cc1 | – | inactive: 11.4% |
| CSc1ccccc1-c1nc(-c2ccncc2)no1 | inconclusive: 32.6 µM [cytotoxic, single point] | – |
| Cc1ccc(C(=O)NCCNS(C)(=O)=O)cc1 | inconclusive: 29.1 µM [rising, single point] | – |
| C=CCN=C(C)C1=C(O)CCC1=O | inconclusive: 25.9 µM [rising, single point] | – |
